According to PMC11589140:
Positions count from the first letter of the chain named. Results are given in words; binding and its absence hold for the method and conditions named. Binding seen in cells or lysates may run through a third protein. Some results given as binding are weak or reduced against the parent protein; the word gives no strength. Tags and fused reporters may be left off the sequences shown.

The chains behind the UniProt entries cited, without tags or fusion partners.
UniProt Q99684: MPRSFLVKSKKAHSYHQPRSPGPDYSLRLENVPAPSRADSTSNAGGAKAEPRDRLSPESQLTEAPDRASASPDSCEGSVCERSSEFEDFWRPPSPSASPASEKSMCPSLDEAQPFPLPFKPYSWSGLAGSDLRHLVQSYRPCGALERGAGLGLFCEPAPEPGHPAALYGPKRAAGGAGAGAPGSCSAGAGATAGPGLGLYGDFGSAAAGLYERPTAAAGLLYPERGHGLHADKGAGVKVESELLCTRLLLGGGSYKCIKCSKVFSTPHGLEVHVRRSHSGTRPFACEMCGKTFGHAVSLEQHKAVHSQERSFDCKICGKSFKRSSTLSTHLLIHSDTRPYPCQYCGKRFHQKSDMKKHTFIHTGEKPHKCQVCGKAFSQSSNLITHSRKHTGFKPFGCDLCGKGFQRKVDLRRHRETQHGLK
UniProt Q13547: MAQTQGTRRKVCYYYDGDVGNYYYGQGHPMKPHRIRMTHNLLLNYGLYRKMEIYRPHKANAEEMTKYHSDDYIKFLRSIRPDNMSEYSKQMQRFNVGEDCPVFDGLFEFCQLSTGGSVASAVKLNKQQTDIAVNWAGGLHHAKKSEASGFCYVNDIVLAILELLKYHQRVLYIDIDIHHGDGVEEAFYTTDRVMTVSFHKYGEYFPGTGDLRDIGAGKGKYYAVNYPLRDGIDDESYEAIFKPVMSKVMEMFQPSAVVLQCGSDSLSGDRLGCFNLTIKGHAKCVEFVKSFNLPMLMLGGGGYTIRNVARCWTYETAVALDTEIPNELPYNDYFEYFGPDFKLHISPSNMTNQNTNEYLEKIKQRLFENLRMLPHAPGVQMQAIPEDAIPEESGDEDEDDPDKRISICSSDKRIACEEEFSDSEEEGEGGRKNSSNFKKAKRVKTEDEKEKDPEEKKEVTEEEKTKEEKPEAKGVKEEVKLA
UniProt O75376: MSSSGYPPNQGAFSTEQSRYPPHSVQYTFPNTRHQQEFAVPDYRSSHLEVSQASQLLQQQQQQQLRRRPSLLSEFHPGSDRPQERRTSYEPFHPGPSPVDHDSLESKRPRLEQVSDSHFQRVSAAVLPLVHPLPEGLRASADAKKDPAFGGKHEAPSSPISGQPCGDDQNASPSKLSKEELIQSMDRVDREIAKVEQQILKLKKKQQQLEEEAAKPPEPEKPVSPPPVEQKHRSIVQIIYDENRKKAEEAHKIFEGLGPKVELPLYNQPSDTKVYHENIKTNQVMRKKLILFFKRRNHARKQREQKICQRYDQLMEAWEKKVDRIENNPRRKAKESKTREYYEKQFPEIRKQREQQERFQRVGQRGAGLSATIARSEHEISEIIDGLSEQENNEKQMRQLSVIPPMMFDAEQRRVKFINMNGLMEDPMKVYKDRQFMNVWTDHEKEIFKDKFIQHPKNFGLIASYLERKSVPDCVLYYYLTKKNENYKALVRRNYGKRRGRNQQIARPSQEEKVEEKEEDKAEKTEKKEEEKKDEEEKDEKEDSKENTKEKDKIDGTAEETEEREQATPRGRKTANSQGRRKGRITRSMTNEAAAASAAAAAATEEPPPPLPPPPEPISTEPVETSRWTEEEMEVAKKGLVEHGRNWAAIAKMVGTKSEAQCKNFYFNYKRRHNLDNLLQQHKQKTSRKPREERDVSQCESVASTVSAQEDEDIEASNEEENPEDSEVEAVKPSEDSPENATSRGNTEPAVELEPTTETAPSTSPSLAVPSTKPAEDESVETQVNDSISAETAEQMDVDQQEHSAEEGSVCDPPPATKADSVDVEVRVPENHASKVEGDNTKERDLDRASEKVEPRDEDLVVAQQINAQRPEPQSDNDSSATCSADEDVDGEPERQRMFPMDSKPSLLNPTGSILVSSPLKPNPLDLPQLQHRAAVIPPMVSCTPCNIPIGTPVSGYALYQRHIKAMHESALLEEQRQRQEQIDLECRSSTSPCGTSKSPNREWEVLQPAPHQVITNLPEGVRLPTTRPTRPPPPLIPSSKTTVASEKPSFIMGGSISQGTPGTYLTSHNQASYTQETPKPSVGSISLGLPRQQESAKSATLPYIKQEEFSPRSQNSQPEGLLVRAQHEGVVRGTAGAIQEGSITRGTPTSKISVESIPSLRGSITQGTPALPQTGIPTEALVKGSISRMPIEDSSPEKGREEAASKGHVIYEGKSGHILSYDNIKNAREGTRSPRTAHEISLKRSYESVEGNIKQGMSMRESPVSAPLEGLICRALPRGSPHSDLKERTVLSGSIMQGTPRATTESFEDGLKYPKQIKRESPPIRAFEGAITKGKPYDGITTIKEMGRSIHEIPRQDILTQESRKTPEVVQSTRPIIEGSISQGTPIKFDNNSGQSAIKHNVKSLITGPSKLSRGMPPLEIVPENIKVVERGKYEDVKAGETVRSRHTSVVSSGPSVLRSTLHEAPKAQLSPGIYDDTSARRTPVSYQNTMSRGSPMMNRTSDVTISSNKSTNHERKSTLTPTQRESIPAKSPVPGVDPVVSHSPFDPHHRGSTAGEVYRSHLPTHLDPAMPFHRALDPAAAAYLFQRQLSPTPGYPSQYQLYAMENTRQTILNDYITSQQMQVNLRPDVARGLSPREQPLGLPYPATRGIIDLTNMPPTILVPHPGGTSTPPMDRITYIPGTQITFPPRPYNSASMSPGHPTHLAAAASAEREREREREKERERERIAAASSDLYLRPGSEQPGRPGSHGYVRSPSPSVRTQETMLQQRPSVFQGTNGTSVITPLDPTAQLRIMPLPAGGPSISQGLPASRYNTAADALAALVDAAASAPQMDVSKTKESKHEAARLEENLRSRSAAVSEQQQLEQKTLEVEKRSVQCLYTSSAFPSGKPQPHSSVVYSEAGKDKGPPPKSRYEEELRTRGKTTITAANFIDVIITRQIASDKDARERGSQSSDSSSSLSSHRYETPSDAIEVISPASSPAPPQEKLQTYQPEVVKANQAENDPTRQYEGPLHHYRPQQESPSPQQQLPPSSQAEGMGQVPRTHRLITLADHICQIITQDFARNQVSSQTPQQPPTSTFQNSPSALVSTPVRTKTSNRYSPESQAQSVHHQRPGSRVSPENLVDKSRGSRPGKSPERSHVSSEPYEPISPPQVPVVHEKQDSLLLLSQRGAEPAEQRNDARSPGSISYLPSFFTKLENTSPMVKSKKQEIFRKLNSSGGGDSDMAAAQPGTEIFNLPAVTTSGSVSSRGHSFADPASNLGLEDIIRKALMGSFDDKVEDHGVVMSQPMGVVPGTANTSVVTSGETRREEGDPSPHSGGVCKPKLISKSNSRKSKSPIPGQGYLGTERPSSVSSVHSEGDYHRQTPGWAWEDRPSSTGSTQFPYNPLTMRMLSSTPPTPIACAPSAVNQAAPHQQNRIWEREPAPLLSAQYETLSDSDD
UniProt O14744: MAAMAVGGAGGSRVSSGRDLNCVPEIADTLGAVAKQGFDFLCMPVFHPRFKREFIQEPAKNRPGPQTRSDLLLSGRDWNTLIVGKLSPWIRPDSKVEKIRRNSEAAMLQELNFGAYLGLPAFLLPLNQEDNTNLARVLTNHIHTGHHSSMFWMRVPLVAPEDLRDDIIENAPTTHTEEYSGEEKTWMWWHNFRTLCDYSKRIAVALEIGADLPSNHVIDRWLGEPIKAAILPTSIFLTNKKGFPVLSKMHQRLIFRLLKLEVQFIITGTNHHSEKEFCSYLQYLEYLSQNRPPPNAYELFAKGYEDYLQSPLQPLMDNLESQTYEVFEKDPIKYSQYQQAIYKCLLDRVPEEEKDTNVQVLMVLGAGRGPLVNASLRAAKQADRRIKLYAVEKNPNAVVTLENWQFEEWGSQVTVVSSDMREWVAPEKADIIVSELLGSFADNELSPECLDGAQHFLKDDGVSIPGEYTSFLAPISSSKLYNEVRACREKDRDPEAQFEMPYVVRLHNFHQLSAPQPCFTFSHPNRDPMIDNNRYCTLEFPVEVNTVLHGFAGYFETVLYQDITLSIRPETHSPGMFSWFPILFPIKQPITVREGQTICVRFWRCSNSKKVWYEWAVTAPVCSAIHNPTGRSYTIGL

How the values were obtained:
[1] = biological target: T1, HA-tagged RUNX1T1 E146K (human) (UniProt Q06455); assay: co-IP; HEK-293T cells expressing HA-RUNX1T1 (WT or mutated) transfected with FLAG-tagged partner; lysis in 25 mM Tris-HCl pH 8, 150 mM NaCl, 1% NP-40; precipitated 1.5 h on anti-HA affinity resin, 4 washes; blot
T1 sequence: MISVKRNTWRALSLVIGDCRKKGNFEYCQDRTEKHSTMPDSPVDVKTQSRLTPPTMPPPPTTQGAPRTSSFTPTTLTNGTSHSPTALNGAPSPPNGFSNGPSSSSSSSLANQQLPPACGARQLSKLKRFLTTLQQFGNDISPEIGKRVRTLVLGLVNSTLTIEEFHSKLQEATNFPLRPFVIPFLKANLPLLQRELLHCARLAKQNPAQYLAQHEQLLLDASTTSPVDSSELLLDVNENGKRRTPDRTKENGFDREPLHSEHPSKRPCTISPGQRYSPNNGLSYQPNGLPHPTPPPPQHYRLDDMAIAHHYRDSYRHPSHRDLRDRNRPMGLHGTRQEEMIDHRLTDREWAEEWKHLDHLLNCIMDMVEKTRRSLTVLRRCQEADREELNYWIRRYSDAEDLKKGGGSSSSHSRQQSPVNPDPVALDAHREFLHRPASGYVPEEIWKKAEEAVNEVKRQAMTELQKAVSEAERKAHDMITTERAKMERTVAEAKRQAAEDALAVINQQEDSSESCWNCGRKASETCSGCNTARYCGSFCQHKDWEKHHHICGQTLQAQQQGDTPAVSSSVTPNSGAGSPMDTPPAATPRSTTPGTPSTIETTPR

[2] = biological target: T2, HA-tagged RUNX1T1 E163K (human) (UniProt Q06455); assay: as above
T2 sequence: T1 sequence with K146E, E163K

[3] = biological target: T1, HA-tagged RUNX1T1 E146K (human); assay: co-IP; data not shown; HA-tagged RUNX1T1 (WT or mutants) and FLAG-tagged putative interactors co-expressed in HEK-293 cells and co-immunoprecipitated
[4] = biological target: T2, HA-tagged RUNX1T1 E163K (human); assay: as above
[5] = biological target: T3, HA-tagged RUNX1T1, wild type (human) (UniProt Q06455); assay: as above
T3 sequence: T1 sequence with K146E

[6] = biological target: T1, HA-tagged RUNX1T1 E146K (human); assay: co-IP; validation of mass spectrometry hits by standard co-IP of HA-RUNX1T1 (WT or mutants) from HEK-293T lysate; PRMT5 and DBC1 found by blot
[7] = biological target: T2, HA-tagged RUNX1T1 E163K (human); assay: as above

Substance	binding [1]	binding [2]	binding [3]	binding [4]	binding [5]	binding [6]	binding [7]
FLAG-tagged GFI-1 (from UniProt Q99684 1-422)	binds	binds					
FLAG-tagged HDAC1 (from UniProt Q13547 1-482)			binds	binds	binds		
FLAG-tagged N-CoR (from UniProt O75376 1-2440)			binds	binds	binds		
arginine methyltransferase PRMT5 (from UniProt O14744 1-637)						binds	binds
